Data: article PMC3979679
No constants are given. Whether binding was seen depends on the method and setting. Some results given as binding are weak or reduced against the parent protein; the word gives no strength.

Sequences of proteins named here, by UniProt entry; tags and fusion partners are left off. A change or cut given only in a name is not applied to a line headed by its entry. A line that says so, or that is headed by a name, gives the form on record, which may keep a tag or linker. Residues count along the entry.
GTP binding protein 4 (gtpbp4), prey (Q7ZVR0, form named): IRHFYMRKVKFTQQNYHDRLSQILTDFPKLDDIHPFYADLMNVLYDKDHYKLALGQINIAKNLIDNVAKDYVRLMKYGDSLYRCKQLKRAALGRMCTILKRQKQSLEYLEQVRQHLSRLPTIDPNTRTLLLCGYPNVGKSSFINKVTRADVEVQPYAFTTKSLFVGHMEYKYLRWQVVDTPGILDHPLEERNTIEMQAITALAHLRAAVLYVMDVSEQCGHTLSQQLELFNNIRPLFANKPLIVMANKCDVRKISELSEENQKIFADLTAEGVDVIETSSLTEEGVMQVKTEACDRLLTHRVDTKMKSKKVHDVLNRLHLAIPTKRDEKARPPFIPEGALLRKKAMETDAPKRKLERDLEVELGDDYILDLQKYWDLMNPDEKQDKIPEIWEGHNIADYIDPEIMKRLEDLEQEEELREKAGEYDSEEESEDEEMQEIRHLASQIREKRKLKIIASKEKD
UniProt Q91981, residues 19-233: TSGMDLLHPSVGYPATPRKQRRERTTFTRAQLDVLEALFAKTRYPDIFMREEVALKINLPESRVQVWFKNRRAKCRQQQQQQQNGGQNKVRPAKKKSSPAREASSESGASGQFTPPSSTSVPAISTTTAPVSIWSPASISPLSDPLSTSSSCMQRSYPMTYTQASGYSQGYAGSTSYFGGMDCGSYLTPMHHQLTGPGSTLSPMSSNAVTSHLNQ

Molecular target: T1, Mib2-C-RF12 (781-999 aa) (zebrafish) (UniProt A0AR23)
T1 sequence: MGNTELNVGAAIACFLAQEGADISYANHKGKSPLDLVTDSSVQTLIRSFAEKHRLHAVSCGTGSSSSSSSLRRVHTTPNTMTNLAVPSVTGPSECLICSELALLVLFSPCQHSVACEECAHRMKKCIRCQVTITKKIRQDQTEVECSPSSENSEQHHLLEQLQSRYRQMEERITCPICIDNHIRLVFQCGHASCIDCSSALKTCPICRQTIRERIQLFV
Experiment: two-hybrid; first screen (Hybrigenics): LexA DNA-binding domain-bait and Gal4 activation domain-prey, HIS3 reporter, in the nucleus; random-primed Danio rerio embryo (18-20 hpf) cDNA library

| binding | Substance |
| --- | --- |
| binds | GTP binding protein 4 (gtpbp4), prey (from UniProt Q7ZVR0 43-502) (domain or fragment) |
| binds | orthodenticle homolog 2 (otx2), prey (from UniProt Q91981 19-233) (domain or fragment) |
